Assay results as given in PubChem BioAssay AID540256 (National Center for Advancing Translational Sciences (NCATS), 2011).
“And” between values parts separate entries of the source, which are not always exact repeats. Equal values may be shown once. Screen size: about 300,000 compounds; about 3,700 (1.2%) were called active. Inconclusive means that the source gave no clear call. Such entries were picked first, then a sample of the others. The call rests on the fitted dose curve; tested in HEK293 cells. Potencies beside an inconclusive call are fits to weak or partial responses and may not hold up.

Assay: qHTS for Inhibitors of binding or entry into cells for Lassa Virus; further: nearly all actives have a fitted effect of over 50% in size
Conditions: Lassa virus pseudotype entry inhibition, cell reporter; series mostly up to 37.9 µM
Potency means the concentration at half of the fitted maximal effect.

Q: With `O=C(O)/C=C/C(=O)Nc1cccc(C(F)(F)F)c1` as the compound, how does the Potency read?
A: inactive

Q: With `CC(C)(C)C(=O)CN1C(=O)NC(C)(Cc2ccc3c(c2)OCO3)C1=O` (configuration not stated) as the compound, how does the Potency read?
A: inconclusive: 1 µM [inhibitor, single point]

Q: For `CCOc1cccc2sc(Cl)nc12`, which Potency is on record?
A: inconclusive: 0.316 µM [inhibitor, single point]

Q: Which Potency does the source give for `COc1ccc(C(NC(=O)c2ccccc2F)NC(=O)c2ccccc2F)cc1` here?
A: inconclusive: 3.55 µM [inhibitor, partial curve, poor fit]

Q: With `CCCNC(=S)N1CCC(C(=O)c2ccc(F)cc2)CC1` as the compound, how does the Potency read?
A: inconclusive: 12.6 µM [inhibitor, partial curve, poor fit]

Q: Which Potency does the source give for `Cc1sc2nc(C3CC3)nc(SCC(=O)NCc3ccco3)c2c1C` here?
A: inactive

Q: With `COc1ccc(-c2cc(C(=O)N(C)Cc3ccc(OC)c(OC)c3OC)c3ccccc3n2)cc1OC` as the compound, how does the Potency read?
A: inconclusive: 12.6 µM [inhibitor, single point]

Q: Which Potency does the source give for `CCCN(CCC)C(=O)c1cc(-c2ccc3c(c2)OCO3)nc2ccccc12` here?
A: inconclusive: 18.3 µM [inhibitor, single point]

Q: With `Cc1cccc(N(CC(=O)NC2CCCCC2)C(=O)CCC(=O)Nc2nccs2)c1` as the compound, how does the Potency read?
A: inconclusive: 35.5 µM [inhibitor, single point]

Q: Which Potency does the source give for `CSCSC1=C(C#N)C(c2ccccc2Cl)C(C(C)=O)=C(C)N1` (configuration not stated) here?
A: inconclusive: 29.1 µM [inhibitor, single point]

Q: With `O=c1nc2ccccc2c2n1CC(CN1CCN(c3ccccc3F)CC1)N2` (configuration not stated) as the compound, how does the Potency read?
A: inconclusive: 35.5 µM [activator, single point]

Q: Which Potency does the source give for `CCCCCN1C(C(=O)c2ccccc2)=C(NC(=O)c2ccc(C)cc2)c2ccccc2S1(=O)=O` here?
A: inactive

Q: For `Cc1ccc(NC(=O)c2ccnc(N3CCCC3)c2)cc1-c1ccc(C(=O)NCC2CC2)cc1`, which Potency is on record?
A: inconclusive: 28.1 µM [inhibitor, single point]

Q: For `OCC[n+]1ccc(/C=C/c2c[nH]c3ccccc23)cc1`, which Potency is on record?
A: inconclusive: 1.12 µM [inhibitor, full curve, poor fit]

Q: With `CC1Cc2ccccc2N1S(=O)(=O)c1cccc(C(=O)N2CCN(c3ncccn3)CC2)c1` (configuration not stated) as the compound, how does the Potency read?
A: inconclusive: 4.47 µM [inhibitor, full curve, poor fit]

Q: For `N/C(Cc1ccc([N+](=O)[O-])cc1)=N\OC(=O)C(c1ccccc1)c1ccccc1`, which Potency is on record?
A: inconclusive: 18.3 µM [inhibitor, partial curve, poor fit]

Q: For `O=C(Nc1ccncc1)c1cccc(F)c1`, which Potency is on record?
A: inactive

Q: With `CCOC(=O)c1cn(-c2c(C)n(C)n(-c3ccccc3)c2=O)c2c(F)c(F)c(F)cc2c1=O` as the compound, how does the Potency read?
A: inactive

Q: Which Potency does the source give for `FCCCOc1ccc(-c2ccnc3ncnn23)cc1` here?
A: inconclusive: 0.708 µM [inhibitor, partial curve, poor fit]

Q: With `COc1ccc(S(=O)(=O)CCC(=O)N2CCN(c3ccc(C(C)=O)cc3)CC2)cc1` as the compound, how does the Potency read?
A: inconclusive: 17.8 µM [activator, single point]

Q: For `O=C(COC(=O)c1ccc([N+](=O)[O-])o1)NC1CCCc2ccccc21` (configuration not stated), which Potency is on record?
A: inconclusive: 1.41 µM [inhibitor, partial curve, poor fit]

Q: For `CC(=NCc1ccco1)c1c(O)n(-c2ccccc2C)c(=O)[nH]c1=O`, which Potency is on record?
A: inconclusive: 1.26 µM [inhibitor, partial curve, poor fit]

Q: For `Cc1ccc(S(=O)(=O)NCC(C)n2cncn2)cc1` (configuration not stated), which Potency is on record?
A: inconclusive: 11.2 µM [activator, single point]

Q: For `COc1ccc(OCc2cc(C(=O)NC3Cc4ccccc4C3)no2)c(Cl)c1`, which Potency is on record?
A: inconclusive: 0.562 µM [inhibitor, full curve, poor fit]

Q: With `CCOC(=O)N1CCN(C(=O)CS(=O)(=O)Cc2nc(-c3ccccc3F)oc2C)CC1` as the compound, how does the Potency read?
A: inconclusive: 35.5 µM [inhibitor, single point]

Q: With `Cc1ccc(C(=O)n2cc(CCN3CCS(=O)(=O)CC3)c3ccccc32)cc1` as the compound, how does the Potency read?
A: inconclusive: 16.4 µM [inhibitor, partial curve, poor fit]

Q: For `Cc1ccc(N2CCN(C(=O)c3ccccc3)CC2)c(C)c1`, which Potency is on record?
A: inactive

Q: Which Potency does the source give for `CC1C(c2ccccc2)N(C)C(c2ccccc2)C(C)C1(O)C#Cc1ccccc1` (configuration not stated) here?
A: inactive

Q: Which Potency does the source give for `COc1ccc(CCN2CCCn3c2nc2c3c(=O)n(Cc3ccccc3F)c(=O)n2C)cc1OC` here?
A: inconclusive: 16.4 µM [inhibitor, single point]

Q: For `Cc1ccc(NC(=O)c2cnc(SCC(=O)N3CCCc4ccccc43)n(C)c2=O)cc1`, which Potency is on record?
A: inactive

Q: With `Cc1cccn2c(=O)c3cc(C(=O)N4CCC5(CC4)OCCO5)n(C)c3nc12` as the compound, how does the Potency read?
A: inconclusive: 2.82 µM [inhibitor, partial curve, poor fit]

Q: Which Potency does the source give for `COC(=O)C1Cc2ccccc2CN1C(=O)CCl` (configuration not stated) here?
A: inconclusive: 12.6 µM [inhibitor, partial curve]

Q: Which Potency does the source give for `CC(C)(C)OC(=O)N1CCC(c2c(C(=O)N3CCN(c4ccccc4F)CC3)cnn2-c2ccccc2Cl)CC1` here?
A: inconclusive: 1.12 µM [inhibitor, full curve, poor fit]

Q: With `COCCNC(=O)c1ccc2c(c1)ncn2-c1ccc(C)c(Cl)c1` as the compound, how does the Potency read?
A: inconclusive: 8.91 µM [inhibitor, partial curve]

Q: Which Potency does the source give for `O=C(CSc1nc2cc3ccccc3cc2[nH]1)Nc1ccc(F)cc1` here?
A: inconclusive: 3.66 µM [inhibitor, partial curve, poor fit] and inconclusive: 2.51 µM [inhibitor, full curve, poor fit]

Q: Which Potency does the source give for `CC1=C(C(=O)Nc2ccc(Cl)cc2)C(c2cccs2)n2nc(SCc3cccc(C)c3)nc2N1` (configuration not stated) here?
A: inactive

Q: With `CCCCc1nc2cc(C(=O)NCc3cn(C)nc3C)ccc2o1` as the compound, how does the Potency read?
A: inconclusive: 12.6 µM [inhibitor, partial curve]

Q: With `Cc1ccc(/C=C(\C#N)c2nc3ccccc3[nH]2)s1` as the compound, how does the Potency read?
A: inactive

Q: With `CC1=CC(c2ccccc2)n2nc(N3C(=O)c4ccccc4C3=O)nc2N1` (configuration not stated) as the compound, how does the Potency read?
A: inactive

Q: Which Potency does the source give for `COc1ccc2nc3oc(C(=O)N4CCCCC4)cc3cc2c1` here?
A: inconclusive: 16.4 µM [inhibitor, single point]

Q: Which Potency does the source give for `Cc1ccc(C(=O)Nc2ccc3c(c2)N(C)C(=O)c2ccccc2S3)cc1` here?
A: inconclusive: 10 µM [inhibitor, partial curve, poor fit]

Q: With `O=C(O)c1ccccc1NN=C1CCCCC1` as the compound, how does the Potency read?
A: inconclusive: 6.31 µM [activator, single point]

Q: For `O=C1c2cccc3cc([N+](=O)[O-])cc(c23)C(=O)N1CCN1CCCC1`, which Potency is on record?
A: inconclusive: 0.316 µM [inhibitor, full curve, poor fit]

Q: For `COc1ccccc1CN1CCNC(=O)C1CC(=O)NC1Cc2ccccc2C1` (configuration not stated), which Potency is on record?
A: inactive

Q: With `S=c1[nH]nc(Cc2cccs2)n1-c1ccccc1Cl` as the compound, how does the Potency read?
A: inconclusive: 35.5 µM [inhibitor, partial curve, poor fit]

Q: Which Potency does the source give for `Cc1ccccc1C(=O)NC(=S)NCc1ccccc1` here?
A: inconclusive: 35.5 µM [inhibitor, single point]

Q: For `CC(=NNC(=S)N1CCCCC1)c1cccc(C)n1`, which Potency is on record?
A: inconclusive: 0.355 µM [inhibitor, full curve]

Q: Which Potency does the source give for `N#CC1C(C#N)N2CCCN2C1c1ccc(Br)cc1` (configuration not stated) here?
A: inactive

Q: Which Potency does the source give for `Cc1cc2oc(=O)cc(C)c2cc1NC(=O)CCC(=O)O` here?
A: inactive

Q: With `CC(C(=O)NCc1ccccc1)N1Cc2ccccc2C1=O` (configuration not stated) as the compound, how does the Potency read?
A: inactive

Q: For `CC1CCN(C(=O)CSc2nc(-c3ccc(C(C)C)cc3)no2)CC1`, which Potency is on record?
A: inactive

Q: With `CCC1CCCCN1CCCNC(=O)c1ccc2c(c1)N(Cc1ccccc1F)C(=O)c1ccccc1S2(=O)=O` (configuration not stated) as the compound, how does the Potency read?
A: inconclusive: 10 µM [inhibitor, single point]

Q: For `CC(c1ccccc1)n1c(-c2ccc(C(C)(C)C)cc2)n[nH]c1=S` (configuration not stated), which Potency is on record?
A: inconclusive: 17.8 µM [inhibitor, partial curve, poor fit]

Q: Which Potency does the source give for `CN(C)CCCn1c(SCC(=O)N2c3ccccc3Sc3ccccc32)nc2ccccc2c1=O` here?
A: inconclusive: 35.5 µM [inhibitor, single point]

Q: For `CN(C)CC1CC/C(=C\c2ccc(O)cc2)C1=O` (configuration not stated), which Potency is on record?
A: active: 11.2 µM

Q: With `CC(C)=C1C2CCC1C1C(=O)N(c3ccc4c(c3)OCO4)C(=O)C21` (configuration not stated) as the compound, how does the Potency read?
A: inactive

Q: Which Potency does the source give for `O=C(CSc1ncccn1)N1CCCc2ccccc21` here?
A: inactive

Q: With `COc1cc(SC)ccc1C(=O)OCC(=O)NC1CCCC1` as the compound, how does the Potency read?
A: inconclusive: 35.5 µM [inhibitor, partial curve, poor fit]

Q: Which Potency does the source give for `O=C1C2CC=C(Cl)CC2C(=O)N1CCCCCCN1C(=O)C2CC=C(Cl)CC2C1=O` (configuration not stated) here?
A: inconclusive: 25.9 µM [inhibitor, single point]

Q: Which Potency does the source give for `CCC(Sc1nc2c(sc3ccccc32)c(=O)n1CCCC(=O)NC1CCCC1)C(=O)Nc1cccc(OC)c1` (configuration not stated) here?
A: inactive

Q: Which Potency does the source give for `CC(C)CC(=O)N1CC(=O)Nc2ccc(F)cc2C1c1ccccc1` (configuration not stated) here?
A: inconclusive: 6.31 µM [activator, single point]

Q: For `Cc1sc2c(c1C)c(=O)n(-c1ccccc1)c(=O)n2CC(=O)c1ccc(Cl)cc1`, which Potency is on record?
A: inconclusive: 11.2 µM [inhibitor, single point]

Q: With `COCCN(C(=O)CSCc1ccccc1)c1c(N)n(Cc2ccccc2)c(=O)[nH]c1=O` as the compound, how does the Potency read?
A: inconclusive: 35.5 µM [inhibitor, single point]

Q: For `NCCCC(N)(C(=O)O)C(F)F` (configuration not stated), which Potency is on record?
A: inconclusive: 2.31 µM [activator, full curve, poor fit]

Q: With `CSCCC(NC(=O)c1ccc(Cl)cc1)C(=O)OCC(=O)Nc1cc(Cl)ccc1C` (configuration not stated) as the compound, how does the Potency read?
A: inactive

Q: With `CCOc1ccc(Nc2nc(Cc3nnc(SCC(N)=O)o3)cs2)cc1` as the compound, how does the Potency read?
A: inconclusive: 14.6 µM [inhibitor, partial curve, poor fit]

Q: For `Cc1ccccc1NCc1cccn1-c1nnc(N2CCOCC2)s1`, which Potency is on record?
A: inconclusive: 5.62 µM [inhibitor, full curve, poor fit]
